# PubChem BioAssay AID1347076 (National Center for Advancing Translational Sciences (NCATS), 2019)
# Among all 400,000 compounds or so, about 13,000 (3.2%) were called active. Inconclusive results, whose numbers are uncertain, are shown with a selection of clear calls. The call rests on the fitted dose curve; in most records, active means well fitted cell-killing curve with a large enough effect; inconclusive means small, poorly fitted or top-dose-only effect, or effect the other way; inactive means flat fitted curve, though single readings scatter. Potencies of inconclusive entries are doubtful fits and often do not repeat.
# Experiment: qHTS assay for MDR1-selective chemotherapeutics: Primary screen using the drug-selected MDR subline cells KB-V1; further: nearly all actives have a fitted effect of over 60% in size
# Details: KB-V1 MDR cells viability, CellTiter-Glo, 72 h; activity change, negative = cytotoxicity: at 46.1 µM (top of the series)
# Method in brief: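 qHTS viability screen in drug-selected KB-V1 MDR cells: 72 h compound treatment at 37 degrees C, ATP luminescence end point.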
# On the % scale 0 is the no-effect control and ±100 the full control effect; potency means the concentration at half of the fitted maximal effect.
Structure (SMILES),Potency,"activity change, negative = cytotoxicity"
CCN(CC)CCCNC(=O)CNC(=O)c1nn(-c2ccc(OC)cc2OC)c(=O)c2ccccc12,"inconclusive: 10.3 µM [rising, partial curve, poor fit]",
COCCCNC(=O)C1CCCCN1S(=O)(=O)c1ccc(F)cc1 (configuration not stated),"inconclusive: 9.2 µM [cytotoxic, partial curve]",
NS(=O)(=O)c1cc(C(=O)Nc2ccc3c(c2)OCCCO3)ccc1Cl,,inactive: -12.1%
C/C(=N\NC(=S)NC1CCCCC1)c1ccccc1,,inactive: -0.849%
O=C(O)C1CC=C(Cl)CC1C(=O)NCC1OCCc2ccccc21 (configuration not stated),"inconclusive: 7.31 µM [rising, partial curve, poor fit]",
O=C1C=C(N2CCOCC2)c2ccccc2C1=O,"inconclusive: 3.66 µM [cytotoxic, full curve]",
CC(C)CNS(=O)(=O)c1ccc(S(=O)(=O)N2CCN(C3CCCC3)CC2)cc1,"inconclusive: 4.11 µM [cytotoxic, partial curve, poor fit]",
CCN(CC)C(=O)[C@H]1C[C@H](CC(=O)NCCCOC)C(=O)N2CCc3c([nH]c4cc(-c5ccco5)ccc34)[C@]12C,,inactive: 0.0002%
Cc1ccc(C(=O)NNC2=Nc3cccc4cccc2c34)cc1,active: 9.2 µM,
COc1ccccc1N1CCN(S(=O)(=O)c2c(C)sc3ncn(CC(=O)Nc4ccc(C(C)C)cc4)c(=O)c23)CC1,"inconclusive: 25.9 µM [rising, single point]",
O=C(COC(=O)C1(c2ccc(Cl)cc2)CCCC1)NC1CCS(=O)(=O)C1 (configuration not stated),"inconclusive: 29.1 µM [cytotoxic, single point]",
Cc1ccc(N2CCN(C(=O)c3ccc(Nc4nc5ccccc5n5nnnc45)cc3)CC2)c(C)c1,,inactive: -10.7%
CCOc1cccc(/C=C/c2ccc3cccc(O)c3n2)c1O,"inconclusive: 14.6 µM [cytotoxic, partial curve, poor fit]",
COc1ccc(S(=O)(=O)Nc2ccccc2C(N)=O)cc1OC,,inactive: 17.3%
CC1(C(=O)NCc2ccco2)Cc2c(-c3ccc(C(N)=O)cc3)ccnc2O1 (configuration not stated),,inactive: -1.9%
COc1cccc(-c2ccnc3c(-c4ccccc4)c(C)nn23)c1,,inactive: 8.83%
COC(=O)c1ccc(-c2ccco2)n1Cc1ccccc1Cl,"inconclusive: 29.1 µM [cytotoxic, single point]",
O=C(N/N=C1/CCS(=O)(=O)c2ccc(F)cc21)c1cccnc1,"inconclusive: 13 µM [rising, partial curve, poor fit]",
CCCCn1c(NCc2ccccc2NS(=O)(=O)c2ccc(C)cc2)nc2ccccc21,"inconclusive: 7.31 µM [cytotoxic, partial curve, poor fit]",
CCOC(=O)c1[nH]c2ccccc2c1NC(=O)c1cc(OC)cc(OC)c1,active: 8.2 µM,
NS(=O)(=O)c1ccc(NC(=S)NCC2CCCO2)cc1 (configuration not stated),,inactive: 2.57%
COc1ccc(C)cc1S(=O)(=O)Nc1ccc(F)c(Cl)c1,,inactive: -14.6%
CC(C)CCNC(=O)c1cnn2c(C(F)(F)F)cc(-c3ccco3)nc12,active: 11.2 µM,
Cc1cc(C)c(S(=O)(=O)Nc2ccccc2)c(C)c1,active: 18.4 µM,

# 3 entries out of the list, arranged by molecular weight, high to low.
Structure (SMILES),Potency,"activity change, negative = cytotoxicity"
COc1ccccc1N1CCN(S(=O)(=O)c2c(C)sc3ncn(CC(=O)Nc4ccc(C(C)C)cc4)c(=O)c23)CC1,"inconclusive: 25.9 µM [rising, single point]",
CC(C)CNS(=O)(=O)c1ccc(S(=O)(=O)N2CCN(C3CCCC3)CC2)cc1,"inconclusive: 4.11 µM [cytotoxic, partial curve, poor fit]",
COc1cccc(-c2ccnc3c(-c4ccccc4)c(C)nn23)c1,,inactive: 8.83%

# Next records

Structure (SMILES),Potency,"activity change, negative = cytotoxicity"
CCOc1ccc(CCN2C(=S)N([C@@H](CC(C)C)CN3CCCC3CN3C(=S)NC[C@@H]3Cc3ccccc3)C[C@@H]2CC(C)C)cc1 (some centres not stated),"inconclusive: 10.3 µM [cytotoxic, partial curve]",
COc1ccc(-c2[nH]ncc2/C=N/NC(=O)c2ccc(Br)cc2)c(OC)c1,,inactive: 19.1%
CCOc1ccc(CN(C(=O)c2oc3ccccc3c2C)C2CCS(=O)(=O)C2)cc1 (configuration not stated),active: 9.2 µM,
COC(=O)N(C)c1nc2ccccc2s1,"inconclusive: 32.6 µM [rising, partial curve, poor fit]",
Cc1cc(C(=O)COC(=O)c2ccc(F)cc2F)c(C)n1C1CC1,,inactive: -29.3%
CCCOc1ccc(Cn2cnc3ccccc32)cc1,"inconclusive: 23.1 µM [cytotoxic, partial curve, poor fit]",
Cc1onc(-c2ccccc2)c1C(=O)Nc1ccc(S(=O)(=O)N2CCCC2)cc1,,inactive: 0%
Cc1ccc(C)c2c3c([nH]c12)-c1nonc1CC3,"inconclusive: 20.6 µM [cytotoxic, single point]",
CCCSC1=C(C#N)C(c2cccs2)C(C(=O)Nc2ccccc2)=C(C)N1 (configuration not stated),"inconclusive: 29.1 µM [cytotoxic, single point]",
COc1ccc(-c2cc(C(=O)Nc3cccc(C(C)=O)c3)no2)cc1OC,"inconclusive: 29.1 µM [rising, single point]",
C/C(=N\NC(=O)c1c(Br)c(C)nn1C)c1cccc(NC(=O)c2ccccc2C)c1,"inconclusive: 10.3 µM [cytotoxic, partial curve]",
CCC(CO)Oc1cc(NCc2ccccc2OC)c2ncn(C(C)C)c2c1 (configuration not stated),"inconclusive: 16.4 µM [cytotoxic, single point]",
Cc1nc(NC(=O)/C=C/c2ccccc2)sc1C(=O)Nc1ccc(Cl)cc1,,inactive: -2.65%
Cc1cc(C(=O)CSc2ncn[nH]2)c(C)n1-c1cccc(S(=O)(=O)N2CCOCC2)c1,"inconclusive: 29.1 µM [cytotoxic, single point]",
CCn1c(=O)n(-c2ccc(F)c(Cl)c2)c(=O)c2sc3ccccc3c21,"inconclusive: 32.6 µM [rising, single point]",
CCOC(=O)Nc1c(C(=O)OC)[nH]c2cc(OC)ccc12,active: 23.1 µM,
CCN(C(=O)COC(=O)Cc1c[nH]c2ccccc12)C1CCS(=O)(=O)C1 (configuration not stated),"inconclusive: 25.9 µM [rising, single point]",
C/C(=N/NC(=O)c1ccc(Br)s1)c1ccncc1,"inconclusive: 29.1 µM [rising, single point]",
CCc1ccccc1NC(=S)NNC(=O)c1ccccc1Cl,,inactive: 10.4%
COc1ccc2c(c1)c(CC(=O)Nc1cccc(F)c1C)c(C)n2C(=O)c1ccc(Cl)cc1,,inconclusive: -27.2%
CCCCN(C)c1c(C)nc2ccc(C(=O)NCCc3c[nH]c4ccccc34)cn12,"inconclusive: 9.2 µM [cytotoxic, partial curve]",
CCOC(=O)/C=C/C(=O)OCC(=O)Nc1ccc(C)cc1,,inactive: -22.8%
O=S(=O)(c1ccc(Cl)cc1)N1c2ccccc2Oc2nc3ccccc3nc21,"inconclusive: 16.4 µM [cytotoxic, partial curve]",
Cc1cc(C)c(C(N)=O)c(SCC(=O)c2cc(C)c(C)cc2C)n1,"inconclusive: 16.4 µM [cytotoxic, single point]",

Structure (SMILES),Potency,"activity change, negative = cytotoxicity"
Cc1ccc(C)c(N2CCN(C(=O)CCS(=O)(=O)c3ccc4c(c3)NC(=O)C(C)S4)CC2)c1 (configuration not stated),"inconclusive: 14.6 µM [cytotoxic, single point]",
CC1(C(=O)O)CCC(C(=O)NCCc2ccccc2)C1(C)C (configuration not stated),"inconclusive: 8.2 µM [rising, partial curve, poor fit]",
CCOC(=O)Nc1cc2c(c(N)n1)N=C(c1ccccc1)CN2,active: 0.13 µM,
Cc1ccc(NS(=O)(=O)c2c(C)[nH]c(C)c2C(=O)N2CCCCC2)c(Cl)c1,,inconclusive: -2.52%
S=C1SCN(Cc2cccnc2)CN1Cc1ccccc1,,inactive: 1.09%
Cc1cc(C(=O)N2CCCC(C(=O)c3ccc(Cl)cc3C)C2)no1 (configuration not stated),"inconclusive: 14.6 µM [cytotoxic, partial curve]",
CC1CN(C(=O)COC(=O)c2ccc(C#N)cc2)CC(C)O1 (configuration not stated),"inconclusive: 8.2 µM [rising, partial curve]",
CCOc1ccc(C(=O)NCC(c2ccco2)N2CCc3ccccc3C2)cc1 (configuration not stated),"inconclusive: 8.2 µM [cytotoxic, partial curve]",
C(=C/c1ccnc2nc(SC/C=C/c3ccccc3)nn12)/c1ccccc1,active: 16.4 µM,
CC1CCCC(C)N1C(=O)COC(=O)c1ccco1 (configuration not stated),"inconclusive: 29.1 µM [rising, single point]",
Cc1ccc(-c2nc(C#N)c(NCc3cccc4c3OCO4)o2)cc1,,inactive: -20.1%
CCN(Cc1nc2cc(Cl)ccc2c(=O)[nH]1)C(=O)c1ccc(C)c(NC(=O)c2ccco2)c1,"inconclusive: 0.0065 µM [cytotoxic, full curve, poor fit]",
COc1ccc(N2CCN(C(=O)CNC(=O)Cn3c(C)cc4ccccc4c3=O)CC2)cc1,"inconclusive: 23.1 µM [cytotoxic, single point]",
COc1cc(/C=C/C(=O)O)cc(S(=O)(=O)NNC(=O)c2cc(C)oc2C)c1OC,"inconclusive: 29.1 µM [rising, single point]",
c1ccc(N2OCC3Cn4c(nc5ccccc54)C32)cc1 (configuration not stated),,inactive: 3.4%
CCCOc1ccc(-c2c(C(=O)N/N=C/C3CCCCC3)nnn2-c2nonc2N)cc1,,inactive: 4.53%
C=CCNC(=O)c1ccccc1NC(=O)c1cccc2ccccc12,"inconclusive: 1.84 µM [cytotoxic, partial curve, poor fit]",
O=C(Nc1ccc(Cl)c([N+](=O)[O-])c1)c1ccc(NCCCN2CCOCC2)c([N+](=O)[O-])c1,active: 4.61 µM,
Cc1onc(-c2ccccc2)c1C(=O)Nc1ccccc1N1CCOCC1,active: 13 µM,
COc1ccc(CCNC(=S)Nc2ccccc2C)cc1,,inactive: 9.49%
O=C(CN1CCN(Cc2cccc(F)c2)CC1)NCc1ccccc1,"inconclusive: 32.6 µM [cytotoxic, single point]",
CCN(CC)c1ccc(NC(=O)c2ccccc2F)cc1,"inconclusive: 6.51 µM [cytotoxic, partial curve]",
COc1ccc([C@H]2C(C#N)=C([S-])N[C@](C)(O)[C@@H]2[n+]2ccccc2)cc1,,inactive: -3.04%
Cc1ccc(C(C(=O)NC2CCCC2)N(C(=O)Cc2cccs2)c2ccc3c(c2)OCCO3)cc1 (configuration not stated),active: 20.6 µM,
